## Results from one PubChem assay

By UniProt entry, the sequences of proteins in these tests, tags left out.
UniProt Q03181, whole entry, target on record: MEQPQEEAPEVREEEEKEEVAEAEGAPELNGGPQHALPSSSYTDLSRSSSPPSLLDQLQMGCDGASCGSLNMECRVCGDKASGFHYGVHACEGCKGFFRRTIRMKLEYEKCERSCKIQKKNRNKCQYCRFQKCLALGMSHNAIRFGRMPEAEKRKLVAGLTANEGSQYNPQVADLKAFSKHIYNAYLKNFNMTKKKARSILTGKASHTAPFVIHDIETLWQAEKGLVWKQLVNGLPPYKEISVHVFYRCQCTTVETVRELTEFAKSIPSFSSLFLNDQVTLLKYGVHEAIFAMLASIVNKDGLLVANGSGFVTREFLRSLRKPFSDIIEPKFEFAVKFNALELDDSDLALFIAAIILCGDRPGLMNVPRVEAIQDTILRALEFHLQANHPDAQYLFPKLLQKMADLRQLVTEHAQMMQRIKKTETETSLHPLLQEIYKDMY

Source: PubChem BioAssay AID588535 (NCATS, 2011).

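HEK293T cells with a PPAR-delta-driven beta-lactamase reporter, co-stimulated by an agonist, screened for antagonists through the FRET signal ratio after 18 hours.
Compounds were tested as a titration series; assay dose columns run from about 0.00043 to 54,000 µM.
The value is a fitted half-maximal potency (AC50), and a lower number means a more potent compound.
Calls come from curve class and fitted potency: actives score 40 to 100, inactives score 0, and inconclusives get a low nonzero score.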

Values are in µM.
All entries here are filed as inconclusive.
These entries are mostly ones the record files as inconclusive; other results of the assay are not listed here.
A potency from a partial, single-point or poor curve is only a rough figure.
Some entries filed as inconclusive have a full curve.
The first word of each remark tells which way the curve ran; it can be opposite to the aim of the assay.
Activity scores are not listed here.

* CC(C)(C)OCC1CO1 (configuration not stated) | potency 50.12 µM (fluorescent, single point)
* Oc1c(Cl)cc(Cl)c(Cl)c1Cl | potency 44.67 µM (side channel, rising, single point)
* C=C(C)C#N | potency 28.18 µM (activator, single point)
* Brc1ccccc1 | potency 44.67 µM (side channel, rising, single point)
* C=CCc1cc(OC)c2c(c1)OCO2 | potency 0.631 µM (inhibitor, full curve, poor fit)
* C[Si](C)(C)Cl | potency 50.12 µM (fluorescent, side channel, single point)
* CC(C)(C)C(=O)C1C(=O)c2ccccc2C1=O | potency 44.67 µM (inhibitor, partial curve, poor fit)
* CC/C(=C(\c1ccccc1)c1ccc(OCCN(C)C)cc1)c1ccc(O)cc1 | potency 39.81 µM (fluorescent, side channel, partial curve)
* Oc1ccc(Cl)c(Cl)c1Cl | potency 50.12 µM (side channel, rising, single point)
* COC(=O)C1=C(C)NC(C)=C(C(=O)OC)C1c1ccccc1[N+](=O)[O-] | potency 25.12 µM (side channel, rising, full curve)
* CC/C=C\C/C=C\C/C=C\CCCCCCCC(=O)O | potency 44.67 µM (side channel, rising, partial curve)
* N#CC(Cl)Cl | potency 44.67 µM (side channel, rising, partial curve)

Repeated from the top, 2 entries:

structure	potency (µM)	curve as filed
CC(C)(C)OCC1CO1 (configuration not stated)	50.12	fluorescent, single point
Oc1c(Cl)cc(Cl)c(Cl)c1Cl	44.67	side channel, rising, single point